The source of these data is PubChem BioAssay AID1487 (National Center for Advancing Translational Sciences (NCATS), 2009).

Values joined by “and” are separate entries in the source; they are usually repeats but may differ in a detail not shown here. Identical values can stand only once. This is one part of the list. Further columns of the screen follow, without active or inactive calls. The list favours compounds with an active or inconclusive main result. Words in brackets tell the shape of the fitted curve; partial curves, single points and poor fits give uncertain potencies.

A short description of the assay: qHTS Assay for Modulators of Lamin A Splicing. The note with it: HeLa LMNA splicing GFP/RFP minigene ratio, 48 h. The essentials:
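Read-out is the ratio of GFP to DsRed2 object intensity, acquired by 488 nm laser-scanning cytometry on HeLa lamin A-EGFP minigene reporter cells. Compound incubation 48 hrs at 37 °C in Opti-MEM with 2% FBS; DMSO 0.5% final.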
(Quantitative high-throughput screening tests each substance at several concentrations.)

Setting [1] is: measured here: GFP splicing reporter channel.
Where [2] appears, read: measured here: RFP viability control channel.

Regarding `O=C(Nc1ccc2oc(-c3ccccc3F)nc2c1)c1ccc2c(c1)OCCO2`, the half-maximal activity concentration (AC50) was 14.1 µM [falling, single point] under setting [1] and 17.8 µM [falling, single point] under setting [2]. In the case of `CCc1ccc(C(=O)OCC(=O)NCC(F)(F)F)cc1`, the AC50 is, setting by setting: under setting [1], 0.00794 µM [rising, full curve, poor fit]; under setting [2], 0.00447 µM [rising, full curve, poor fit]. As to `Cc1ccc(C(=O)c2c(NC(=O)CSc3nnc(N)s3)sc3c2CCCC3)cc1`, the AC50 under setting [2] was 12.6 µM [rising, partial curve].

For the molecule `COc1ccc(S(=O)(=O)N(C(C)=O)c2ccc(OC(C)=O)c3ccccc23)cc1[N+](=O)[O-]`, under setting [1], the half-maximal activity concentration (AC50) was 22.4 µM [falling, single point]. The same measure, in the same setting: the result for `NC(=O)c1ccc(C(F)(F)F)n(Cc2ccccc2Cl)c1=O` reads 35.5 µM [rising, single point]. With `Cc1cc(C(=O)COC(=O)c2nccnc2N)c(C)n1C`, under setting [1], the AC50 is 12.6 µM [rising, single point]. For `CC(=O)/C(N=Nc1ccc2c(c1)OCO2)=C(\C)O`, the concentration at half-maximal activity (AC50) under setting [2] is 35.5 µM [falling, single point]. Still for that read-out and setting: the result for `Fc1ccc(Cn2c(-c3cccc(Br)c3)nc3ccccc32)cc1` reads 11.2 µM [rising, single point]; that for `Cc1ccc(C(O)(C(=O)NNc2ccc3ccccc3n2)c2ccc(C)cc2)cc1`, 17.8 µM [rising, partial curve] and 22.4 µM [rising, single point]. Take `CC(C)CC(=O)NC1(C(F)(F)F)NC(=O)N(c2ccccc2)C1=O` (centres undefined): the AC50 was 7.94 µM [rising, partial curve, poor fit] under setting [1] and 0.708 µM [rising, partial curve] under setting [2]. Turning to `Nn1cnc2c(c1=O)C1(CCCCC1)Cc1ccccc1-2`, the concentration at half-maximal activity (AC50) under setting [1] was 22.4 µM [rising, single point]. `Cc1nn(Cc2ccccc2Cl)c2sc(C(=O)Nc3ccccc3N3CCOCC3)cc12`: the concentration at half-maximal activity (AC50) was 11.2 µM [rising, single point] under setting [1] and 15.8 µM [rising, single point] under setting [2]. Take `CCCSCC(=O)Nc1ncc2c(n1)-c1ccccc1CC2`: the AC50 under setting [2] was 0.0282 µM [falling, full curve, poor fit]. Same read-out and setting: the result for `NC(=O)/C(=C\c1cccnc1)NC(=O)c1ccccc1` reads 0.282 µM [falling, partial curve, poor fit].

With `CC1C(=O)CCN(C(C)(C)C)C1C` (centres undefined), the AC50 under setting [2] is 31.6 µM [rising, single point].

Consider `Cc1cc(C)nc(N2CCN(C(=O)c3ccc(S(=O)(=O)N4CCCCCC4)cc3)CC2)n1`, for which the AC50 is 1 µM [rising, partial curve] under setting [1] and 1.41 µM [rising, full curve, poor fit] under setting [2].

`Cc1cccc(C(=O)N[C@H](C(=O)Nc2nc3ccc(S(C)(=O)=O)cc3s2)C(C)C)c1`: the AC50 under setting [1] is 7.08 µM [falling, partial curve, poor fit]. With `Cc1ccccc1S(=O)(=O)Nc1ncc(C(F)(F)F)cc1Cl`, the AC50 under setting [2] was 5.62 µM [rising, single point]. Same read-out and setting: the result for `COc1ccccc1-c1cc(C(F)(F)F)nc(S(C)(=O)=O)n1` reads 22.4 µM [falling, single point]. Turning to `OCCNc1nc(SCc2ccccc2)nc2sc3c(c12)CCC3`, the concentration at half-maximal activity (AC50) is 2.51 µM [falling, partial curve] under setting [1] and 2.51 µM [falling, partial curve] under setting [2]. As for `Cc1oc(CC(C)C)cc1C(=O)Nc1ccc(C(=O)O)cc1`, the concentration at half-maximal activity (AC50) under setting [1] was 7.94 µM [rising, partial curve, poor fit]. Consider `COc1ccc(CNC(=O)c2ccc3c(c2)NC(=O)C(C)S3)cc1` (centres undefined), for which the AC50 under setting [2] is 0.0562 µM [falling, full curve, poor fit]. `CC1CCN(S(=O)(=O)c2ccc(NC(=O)Cc3ccccc3)cc2)CC1`: the concentration at half-maximal activity (AC50) runs as follows: under setting [1], 22.4 µM [rising, single point]; under setting [2], 35.5 µM [rising, single point]. With `O=C1c2cccc3cccc(c23)N1Cc1ccc(F)cc1`, under setting [2], the AC50 was 31.6 µM [rising, single point]. The same measure, in the same setting: the same measure for `CN(/C(=N/S(=O)(=O)c1cccs1)c1ccccc1)c1ccccc1`: 6.31 µM [rising, single point]; for `Cc1occc1C(=O)N/N=C/C=C\c1ccccc1[N+](=O)[O-]`: 0.631 µM [rising, partial curve, poor fit]. The same measure, in the same setting: the same measure for `Cc1ccc(-c2nnc(CSc3nnc(COc4ccccc4)n3-c3ccc(C)cc3)o2)cc1`: 7.94 µM [rising, partial curve, poor fit]. As to `c1ccc2c(N3CCOCC3)nc(-c3ccoc3)nc2c1`, the half-maximal activity concentration (AC50) under setting [1] was 2.51 µM [falling, partial curve, poor fit]. In the case of `CCCS(=O)(=O)N1CCC(C(=O)NCCCOCC)CC1`, the AC50 under setting [2] was 0.0501 µM [falling, full curve, poor fit]. In the case of `COc1cccc(/C=N/NC(=O)C(=O)Nc2ccccc2OC(F)(F)C(F)F)c1O`, the concentration at half-maximal activity (AC50) under setting [1] is 2.82 µM [rising, partial curve] and the AC50 under setting [2] is 15.8 µM [rising, partial curve, poor fit]. In the case of `Cc1ccc(-n2ncc3c(Nc4ccccc4C)ncnc32)cc1`, the AC50 under setting [1] is 31.6 µM [falling, partial curve, poor fit]. Take `CCOc1ccc(CCNC(=O)c2cc3sccc3n2C)cc1OCC`: the AC50 under setting [2] was 14.1 µM [rising, single point].

Turning to `CS(=O)(=O)c1nc(-c2ccc(Br)cc2)cc(-c2ccccc2)c1C#N`, under setting [1], the half-maximal activity concentration (AC50) was 10 µM [falling, partial curve, poor fit]. Turning to `O=S(=O)(c1ccccc1)n1ccc2ccccc21`, under setting [2], the concentration at half-maximal activity (AC50) was 3.98 µM [rising, full curve, poor fit]. For `CCOC(=O)c1c(NC(=O)CSc2nnnn2CC)sc(C)c1C`, the concentration at half-maximal activity (AC50) under setting [2] was 20 µM [rising, single point]. For `Cc1cc(C(=O)CSc2nnc(-c3ccco3)o2)c(C)n1CC1COc2ccccc2O1` (centres undefined), the AC50 under setting [1] was 22.4 µM [rising, single point] and the concentration at half-maximal activity (AC50) under setting [2] was 35.5 µM [rising, single point]. Consider `O=C(NNC(=S)NCCc1ccccc1)c1ccc(Br)s1`, for which the concentration at half-maximal activity (AC50) under setting [1] is 1.41 µM [rising, partial curve] and the AC50 under setting [2] was 2 µM [rising, partial curve]. For `NC(=O)c1ccc(C23CC4CC(CC(C4)C2)C3)o1`, the AC50 by setting is: under setting [1], 11.2 µM [rising, single point]; under setting [2], 14.1 µM [rising, single point]. For `O=c1c(-c2cc(F)cc(F)c2)nc2cnc(N3CCNCC3)nc2n1Cc1ccc(F)cc1`, the concentration at half-maximal activity (AC50) is, setting by setting: under setting [1], 15.8 µM [falling, partial curve]; under setting [2], 17.8 µM [falling, single point].

`CCc1nc(N=C(N)N)nc2ccccc12`: the concentration at half-maximal activity (AC50) under setting [1] is 0.00316 µM [falling, full curve, poor fit].

For the molecule `Cn1cc(C(=O)NCc2ccccc2F)cn1`, the half-maximal activity concentration (AC50) is 0.00891 µM [falling, full curve, poor fit] under setting [1] and 0.355 µM [falling, partial curve, poor fit] under setting [2]. In the case of `O=C(COC(=O)c1n[nH]c2ccccc12)Nc1ccc(S(=O)(=O)N2CCCC2)cc1`, the concentration at half-maximal activity (AC50) under setting [2] is 8.91 µM [rising, partial curve]. Turning to `O=C(/C=C/c1ccc2c(c1)OCO2)c1ccc[nH]1`, the half-maximal activity concentration (AC50) under setting [2] is 8.91 µM [rising, partial curve, poor fit]. Same read-out and setting: the same measure for `Cc1cc(SC(C)C(=O)Nc2ncc(Cl)cc2Cl)nc2ccccc12` (centres undefined): 6.31 µM [rising, partial curve]. Regarding `CCOc1ccc(NS(=O)(=O)c2ccc3[nH]c(=O)cc(C(=O)O)c3c2)cc1`, the concentration at half-maximal activity (AC50) under setting [1] was 3.98 µM [rising, single point].

In the case of `c1nc2nc3c(c(N4CCOCC4)n2n1)CCCC3`, the half-maximal activity concentration (AC50) runs as follows: under setting [1], 3.55 µM [falling, single point]; under setting [2], 2 µM [falling, single point]. Turning to `Cc1cccc(NC(=O)C2CCN(S(=O)(=O)c3c(C)nn(C)c3C)CC2)n1`, the AC50 under setting [2] is 11.2 µM [rising, single point]. Same read-out and setting: the result for `COc1cccc(C(=O)NCCSc2ccc(Br)cc2)c1` reads 11.2 µM [falling, single point].

Consider `Cc1ccccc1C(=O)Nc1ccc2c(c1)CCCN2C(=O)c1cccs1`, for which the half-maximal activity concentration (AC50) is, setting by setting: under setting [1], 5.62 µM [falling, full curve, poor fit]; under setting [2], 5.01 µM [rising, full curve]. For the molecule `COC(=O)c1c(C)[nH]c(C)c1-c1ccccc1Cl`, the concentration at half-maximal activity (AC50) under setting [1] was 11.2 µM [rising, partial curve] and the AC50 under setting [2] was 11.2 µM [rising, partial curve, poor fit].

Turning to `O=C(Nc1nc(-c2ccccc2)cs1)c1cccc(S(=O)(=O)N2CCN(Cc3ccccc3)CC2)c1`, under setting [2], the AC50 was 11.2 µM [rising, partial curve]. On the same count and under the same terms, the same measure for `CCCn1c(SCC(=O)N2CCN(c3ccccc3)CC2)nc2ccccc2c1=O`: 35.5 µM [rising, single point]. In the case of `CC1CCc2c(C(=O)OCC(=O)Nc3cccc(S(=O)(=O)N4CCCCCC4)c3)csc2C1` (centres undefined), the AC50 under setting [1] was 35.5 µM [rising, single point] and the AC50 under setting [2] was 35.5 µM [rising, single point]. With `CC(C)(C)c1cc(C(C)(C)C)cc(S(=O)(=O)CCc2ccccn2)c1`, the half-maximal activity concentration (AC50) under setting [1] was 35.5 µM [rising, single point]. For the molecule `CCc1nc(-c2ccccc2O)n(-c2ccccc2)n1`, the AC50 under setting [2] was 0.0224 µM [falling, full curve, poor fit]. Same read-out and setting: the same measure for `CC(=O)/C(=N/Nc1ccccc1)Sc1nnc(CCc2ccccc2)n1-c1ccccc1`: 20 µM [rising, partial curve, poor fit]. On the same count and under the same terms, the same measure for `COc1ccc(-n2c(SCC(=O)Nc3ncc(Cl)cc3Cl)nc3ccccc32)cc1`: 3.16 µM [rising, single point].

The term AC50 denotes the midpoint of the concentration-response curve, whichever way the signal moves.
